# Laboratory results published in the supplement of paper PMC8728848.
# Some of the results follow.
# B1: Actd5 (Actinidia), P84527 (protein)
# chain: ISSCNGPCRDLNDCDGQLICIKGKCNDDPQVGTHICRGTTHSHQPGGCKPSGTLTCRGKSYPTYDCSPPVTSSTPAKLTNNDFSEGGDDGGPSECDESYHNNNERIVALSTGWYNGGSRCGKMIRITASNGKSVSAKVVDECDSRHGCDKEHAGQPPCRNNIVDGSNAVWSALGLDKNVGVVDITWSMA
# What was measured:
# Test in all cases: glycan array binding signal (z-score within array); higher = stronger binding
# Settings in all cases: glycan notation: IUPAC condensed, linker removed
# [1] = target: Gal(b1-3)GlcNAc(b1-6)GalNAc
# Method in brief: (§1)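 The binding signal is a Z-score computed within each array and averaged over linkers. Arrays of the same protein sequence at different concentrations or buffers were also averaged together. Data originate from 3228 arrays in the Consortium for Functional Glycomics database, kept only where the protein sequence was available.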
# [2] = target: Gal(b1-3)GlcNAc(b1-6)[Gal(b1-3)]GalNAc
# Method in brief: as §1
# Gal(b1-3)GlcNAc6S = target: Gal(b1-3)GlcNAc6S
# Method in brief: as §1
# [3] = target: Gal(b1-3)[Fuc(a1-4)]GlcNAc
# Method in brief: as §1
# [4] = target: Gal(b1-3)[Fuc(a1-4)]GlcNAc(b1-2)Man
# Method in brief: as §1
# [5] = target: Gal(b1-3)[Fuc(a1-4)]GlcNAc(b1-2)Man(a1-3)[Gal(b1-3)[Fuc(a1-4)]GlcNAc(b1-2)Man(a1-6)]Man(b1-4)GlcNAc(b1-4)[Fuc(a1-6)]GlcNAc
# Method in brief: as §1
# [6] = target: Gal(b1-3)[Fuc(a1-4)]GlcNAc(b1-3)Gal(b1-3)[Fuc(a1-4)]GlcNAc
# Method in brief: as §1
# [7] = target: Gal(b1-3)[Fuc(a1-4)]GlcNAc(b1-3)Gal(b1-4)[Fuc(a1-3)]GlcNAc
# Method in brief: as §1
# [8] = target: Gal(b1-3)[Fuc(a1-4)]GlcNAc(b1-6)GalNAc
# Method in brief: as §1
# [9] = target: Gal(b1-3)[GlcNAc(b1-6)]GalNAc
# Method in brief: as §1
# [10] = target: Gal(b1-3)[Neu5Ac(a2-6)]GalNAc
# Method in brief: as §1
# [11] = target: Gal(b1-3)[Neu5Ac(a2-6)]GlcNAc(b1-4)Gal(b1-4)Glc
# Method in brief: as §1
# [12] = target: Gal(b1-3)[Neu5Ac(b2-6)]GalNAc
# Method in brief: as §1
# Gal(b1-4)Gal = target: Gal(b1-4)Gal
# Method in brief: as §1
# [13] = target: Gal(b1-4)GalNAc(a1-3)[Fuc(a1-2)]Gal(b1-4)GlcNAc
# Method in brief: as §1
# [14] = target: Gal(b1-4)GalNAc(b1-3)[Fuc(a1-2)]Gal(b1-4)GlcNAc
# Method in brief: as §1
# Gal(b1-4)Glc = target: Gal(b1-4)Glc
# Method in brief: as §1
# Gal(b1-4)Glc6S = target: Gal(b1-4)Glc6S
# Method in brief: as §1
# Gal(b1-4)GlcNAc = target: Gal(b1-4)GlcNAc
# Method in brief: as §1
# [15] = target: Gal(b1-4)GlcNAc(a1-6)Gal(b1-4)GlcNAc
# Method in brief: as §1
# Gal(b1-4)GlcNAc(b1-2)Man = target: Gal(b1-4)GlcNAc(b1-2)Man
# Method in brief: as §1
# [16] = target: Gal(b1-4)GlcNAc(b1-2)Man(a1-3)Man(b1-4)GlcNAc(b1-4)GlcNAc
# Method in brief: as §1
# [17] = target: Gal(b1-4)GlcNAc(b1-2)Man(a1-3)[Gal(b1-4)GlcNAc(b1-2)Man(a1-6)]Man(b1-4)GlcNAc(b1-4)GlcNAc
# Method in brief: as §1
# [18] = target: Gal(b1-4)GlcNAc(b1-2)Man(a1-3)[Gal(b1-4)GlcNAc(b1-2)Man(a1-6)]Man(b1-4)GlcNAc(b1-4)[Fuc(a1-6)]GlcNAc
# Method in brief: as §1
# [19] = target: Gal(b1-4)GlcNAc(b1-2)Man(a1-3)[Gal(b1-4)GlcNAc(b1-2)Man(a1-6)][Gal(b1-4)GlcNAc(b1-4)]Man(b1-4)GlcNAc(b1-4)[Fuc(a1-6)]GlcNAc
# Method in brief: as §1
# [20] = target: Gal(b1-4)GlcNAc(b1-2)Man(a1-3)[Gal(b1-4)GlcNAc(b1-2)Man(a1-6)][GlcNAc(b1-4)]Man(b1-4)GlcNAc(b1-4)[Fuc(a1-6)]GlcNAc
# Method in brief: as §1
# [21] = target: Gal(b1-4)GlcNAc(b1-2)Man(a1-3)[GlcNAc(b1-2)Man(a1-6)]Man(b1-4)GlcNAc(b1-4)GlcNAc
# Method in brief: as §1
# [22] = target: Gal(b1-4)GlcNAc(b1-2)Man(a1-3)[GlcNAc(b1-4)][Gal(b1-4)GlcNAc(b1-2)Man(a1-6)]Man(b1-4)GlcNAc(b1-4)GlcNAc
# Method in brief: as §1
# [23] = target: Gal(b1-4)GlcNAc(b1-2)Man(a1-3)[Man(a1-6)]Man(b1-4)GlcNAc(b1-4)GlcNAc
# Method in brief: as §1
# [24] = target: Gal(b1-4)GlcNAc(b1-2)Man(a1-6)Man(b1-4)GlcNAc(b1-4)GlcNAc
# Method in brief: as §1
# [25] = target: Gal(b1-4)GlcNAc(b1-2)Man(a1-6)[GlcNAc(b1-2)Man(a1-3)]Man(b1-4)GlcNAc(b1-4)GlcNAc
# Method in brief: as §1
# [26] = target: Gal(b1-4)GlcNAc(b1-2)Man(a1-6)[Man(a1-3)]Man(b1-4)GlcNAc(b1-4)GlcNAc
# Method in brief: as §1
# [27] = target: Gal(b1-4)GlcNAc(b1-2)[Gal(b1-4)GlcNAc(b1-4)]Man(a1-3)[Gal(b1-4)GlcNAc(b1-2)Man(a1-6)]Man(b1-4)GlcNAc(b1-4)GlcNAc
# Method in brief: as §1
# [28] = target: Gal(b1-4)GlcNAc(b1-2)[Gal(b1-4)GlcNAc(b1-4)]Man(a1-3)[Gal(b1-4)GlcNAc(b1-2)[Gal(b1-4)GlcNAc(b1-6)]Man(a1-6)]Man(b1-4)GlcNAc(b1-4)GlcNAc
# Method in brief: as §1
# [29] = target: Gal(b1-4)GlcNAc(b1-2)[Gal(b1-4)GlcNAc(b1-4)]Man(a1-3)[GlcNAc(b1-4)][Gal(b1-4)GlcNAc(b1-2)Man(a1-6)]Man(b1-4)GlcNAc(b1-4)GlcNAc
# Method in brief: as §1
# [30] = target: Gal(b1-4)GlcNAc(b1-2)[Gal(b1-4)GlcNAc(b1-4)]Man(a1-3)[GlcNAc(b1-4)][Gal(b1-4)GlcNAc(b1-2)[Gal(b1-4)GlcNAc(b1-6)]Man(a1-6)]Man(b1-4)GlcNAc(b1-4)GlcNAc
# Method in brief: as §1
# [31] = target: Gal(b1-4)GlcNAc(b1-2)[Gal(b1-4)GlcNAc(b1-6)]Man(a1-6)[Gal(b1-4)GlcNAc(b1-2)Man(a1-3)]Man(b1-4)GlcNAc(b1-4)GlcNAc
# Method in brief: as §1
# [32] = target: Gal(b1-4)GlcNAc(b1-2)[Gal(b1-4)GlcNAc(b1-6)]Man(a1-6)[Gal(b1-4)GlcNAc(b1-2)Man(a1-3)]Man(b1-4)GlcNAc(b1-4)[Fuc(a1-6)]GlcNAc
# Method in brief: as §1
# [33] = target: Gal(b1-4)GlcNAc(b1-2)[Gal(b1-4)GlcNAc(b1-6)]Man(a1-6)[GlcNAc(b1-4)][Gal(b1-4)GlcNAc(b1-2)Man(a1-3)]Man(b1-4)GlcNAc(b1-4)GlcNAc
# Method in brief: as §1
# [34] = target: Gal(b1-4)GlcNAc(b1-2)[Gal(b1-4)GlcNAc(b1-6)]Man(a1-6)[GlcNAc(b1-4)][Gal(b1-4)GlcNAc(b1-2)[Gal(b1-4)GlcNAc(b1-4)]Man(a1-3)]Man(b1-4)GlcNAc(b1-4)[Fuc(a1-6)]GlcNAc
# Method in brief: as §1
# [35] = target: Gal(b1-4)GlcNAc(b1-3)Gal(b1-3)GalNAc
# Method in brief: as §1
# [36] = target: Gal(b1-4)GlcNAc(b1-3)Gal(b1-3)GlcNAc
# Method in brief: as §1
# [37] = target: Gal(b1-4)GlcNAc(b1-3)Gal(b1-4)Glc
# Method in brief: as §1
# [38] = target: Gal(b1-4)GlcNAc(b1-3)Gal(b1-4)GlcNAc
# Method in brief: as §1
# [39] = target: Gal(b1-4)GlcNAc(b1-3)Gal(b1-4)GlcNAc(b1-2)Man(a1-3)[Gal(b1-4)GlcNAc(b1-3)Gal(b1-4)GlcNAc(b1-2)Man(a1-6)]Man(b1-4)GlcNAc(b1-4)GlcNAc
# Method in brief: as §1
binder,measurement,setting,value
B1,glycan array binding signal (z-score),[1],-0.821
same,glycan array binding signal (z-score),[2],-1.04
same,glycan array binding signal (z-score),Gal(b1-3)GlcNAc6S,0.781
same,glycan array binding signal (z-score),[3],-0.318
same,glycan array binding signal (z-score),[4],0.065
same,glycan array binding signal (z-score),[5],0.077
same,glycan array binding signal (z-score),[6],-0.594
same,glycan array binding signal (z-score),[7],-0.851
same,glycan array binding signal (z-score),[8],0.03
same,glycan array binding signal (z-score),[9],-0.2
same,glycan array binding signal (z-score),[10],-1.12
same,glycan array binding signal (z-score),[11],-0.017
same,glycan array binding signal (z-score),[12],-0.552
same,glycan array binding signal (z-score),Gal(b1-4)Gal,0.566
same,glycan array binding signal (z-score),[13],-0.191
same,glycan array binding signal (z-score),[14],1.16
same,glycan array binding signal (z-score),Gal(b1-4)Glc,0.034
same,glycan array binding signal (z-score),Gal(b1-4)Glc6S,0.117
same,glycan array binding signal (z-score),Gal(b1-4)GlcNAc,-0.447
same,glycan array binding signal (z-score),[15],-0.614
same,glycan array binding signal (z-score),Gal(b1-4)GlcNAc(b1-2)Man,0.139
same,glycan array binding signal (z-score),[16],-0.365
same,glycan array binding signal (z-score),[17],-1.48
same,glycan array binding signal (z-score),[18],1.05
same,glycan array binding signal (z-score),[19],-0.365
same,glycan array binding signal (z-score),[20],-0.621
same,glycan array binding signal (z-score),[21],-0.899
same,glycan array binding signal (z-score),[22],-0.11
same,glycan array binding signal (z-score),[23],0.717
same,glycan array binding signal (z-score),[24],-0.655
same,glycan array binding signal (z-score),[25],-1.01
same,glycan array binding signal (z-score),[26],0.245
same,glycan array binding signal (z-score),[27],0.256
same,glycan array binding signal (z-score),[28],-0.276
same,glycan array binding signal (z-score),[29],0.95
same,glycan array binding signal (z-score),[30],-0.201
same,glycan array binding signal (z-score),[31],-0.602
same,glycan array binding signal (z-score),[32],0.729
same,glycan array binding signal (z-score),[33],0
same,glycan array binding signal (z-score),[34],0.095
same,glycan array binding signal (z-score),[35],-0.619
same,glycan array binding signal (z-score),[36],-0.59
same,glycan array binding signal (z-score),[37],0.688
same,glycan array binding signal (z-score),[38],-0.256
same,glycan array binding signal (z-score),[39],3.9

# Fetched one by one from the list above (2):
binder,measurement,setting,value
B1,glycan array binding signal (z-score),[11],-0.017
same,glycan array binding signal (z-score),[25],-1.01
